Data taken from paper PMC4520498.

Target: TNF receptor-I (human (endogenous in peripheral blood T cells))
Assay: co-IP; 250 ug lysate of human T cells treated with CCF52 gangliosides (15 ug/ml; 6, 12, 24 and 48 hrs) incubated with mouse monoclonal anti-TNFRI antibody (6 ug), protein A beads, washed with RIPA buffer; Western blot for FADD, TRADD and TNFRI

B1: TNF receptor associated death domain (TRADD) (protein, UniProt Q15628 1-312)
chain: MAAGQNGHEEWVGSAYLFVESSLDKVVLSDAYAHPQQKVAVYRALQAALAESGGSPDVLQMLKIHRSDPQLIVQLRFCGRQPCGRFLRAYREGALRAALQRSLAAALAQHSVPLQLELRAGAERLDALLADEERCLSCILAQQPDRLRDEELAELEDALRNLKCGSGARGGDGEVASAPLQPPVPSLSEVKPPPPPPPAQTFLFQGQPVVNRPLSLKDQQTFARSVGLKWRKVGRSLQRGCRALRDPALDSLAYEYEREGLYEQAFQLLRRFVQAEGRRATLQRLVEALEENELTSLAEDLLGLTDPNGGLA
binding: binds

Results are given in words; binding and its absence hold for the method and conditions named. In cells and extracts the contact can be indirect. Binding can be weak; no strength is given.
